This note sets out measurements from the supplement of paper PMC4604168 (melanoma cell lines).

Among the test systems are MeWo; RPMI7951; RVH-421; SkMel28; SkMel30; UACC62; WM115; WM1716; WM1745; WM3526; WM3619; WM451Lu; SkMel2.
Assay in all cases: cleaved PARP positive nuclei fraction relative to DMSO control; melanoma cells; higher = more apoptosis
Settings in all cases: library dose: low library concentration; 72 h

This is one part of the list. Many values rest on one well or one pass, so single values are uncertain.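 Imaging used 1,536-well plates; nuclei positive for cleaved PARP by antibody were divided by total DNA-stained nuclei to yield the apoptosis fraction. Doses for screening kept most cells viable, and cell lines differ markedly in resting and induced cleaved-PARP levels.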

On to `CCCCCCCCCCCCCCCCCCOP(=O)([O-])OC1CC[N+](C)(C)CC1` [Perifosine] + CO[C@H]1C[C@@H]2CC[C@@H](C)[C@@](O)(O2)C(=O)C(=O)N2CCCC[C@H]2C(=O)O[C@H]([C@H](C)C[C@@H]2CC[C@@H](OCCO)[C@H](OC)C2)CC(=O)[C@H](C)/C=C(\C)[C@@H](O)[C@@H](OC)C(=O)[C@H](C)C[C@H](C)/C=C/C=C/C=C/1C [everolimus] (first compound 0.4 µM, partner dose 0.02 µM), for which the “cleaved PARP positive nuclei fraction” value in the experiment with MeWo turned out to be 112%; in the experiment on RPMI7951 it was 166%; with RVH-421 it was 49.7%; in the experiment on SkMel28, 189%; in the experiment with SkMel30 it was 116%; in the experiment with UACC62 it was 289%. Moreover, the “cleaved PARP positive nuclei fraction” value in the experiment with WM115 is 97%; in the experiment on WM1716 it was 70%; with WM1745, 109%; in the experiment with WM3526, 113%; in the experiment on WM3619 it was 113%; in the experiment on WM451Lu, 183%.
In the case of `O=C(/C=C/c1cccnc1)NCCCCC1CCN(C(=O)c2ccccc2)CC1` + C#Cc1cccc(Nc2ncnc3cc(OCCOC)c(OCCOC)cc23)c1 [erlotinib] (first compound 0.01 µM, partner dose 0.8 µM), the “cleaved PARP positive nuclei fraction” value in the experiment with MeWo was 181%; in the experiment with RPMI7951 it was 144%; in the experiment on RVH-421 it was 150%; in the experiment with SkMel28 it was 84.6%; with SkMel2, 1360%; in the experiment with SkMel30, 66.7%. The “cleaved PARP positive nuclei fraction” value in the experiment on UACC62 was determined as 226%; with WM115, 56.3%; in the experiment with WM1716 it was 489%; in the experiment on WM1745 it was 122%; in the experiment on WM3526, 76%; with WM3619, 95.9%. In the experiment on WM451Lu, the “cleaved PARP positive nuclei fraction” value turned out to be 84.5%.
As for `COc1cc([C@@H]2c3cc4c(cc3[C@@H](O[C@@H]3O[C@@H]5CO[C@@H](C)O[C@H]5[C@H](O)[C@H]3O)[C@H]3COC(=O)[C@H]23)OCO4)cc(OC)c1O` [etoposide] + CCCS(=O)(=O)Nc1ccc(F)c(C(=O)c2c[nH]c3ncc(Cl)cc23)c1F [PLX4720] (first compound 0.02 µM, partner dose 0.08 µM), the “cleaved PARP positive nuclei fraction” value in the experiment with MeWo was found to be 11%; in the experiment with RPMI7951 it was 85.4%; in the experiment with RVH-421, 204%; in the experiment with SkMel28, 32.3%; in the experiment with SkMel30, 99.2%; in the experiment on UACC62 it was 33.3%. Besides, the “cleaved PARP positive nuclei fraction” value in the experiment on WM115 was 64.4%; in the experiment on WM1716, 31.1%; with WM1745, 98.4%; with WM3526 it was 44.3%; with WM3619 it was 101%; in the experiment on WM451Lu it was 79.7%.
As to `N#CC[C@H](C1CCCC1)n1cc(-c2ncnc3[nH]ccc23)cn1` [ruxolitinib] + CCN(CC)CCNC(=O)c1c(C)[nH]c(/C=C2\C(=O)Nc3ccc(F)cc32)c1C [sunitinib] (first compound 1 µM, partner dose 0.4 µM), the “cleaved PARP positive nuclei fraction” value in the experiment on MeWo was 229%; in the experiment on RPMI7951 it was 55.2%; in the experiment with RVH-421, 74.2%; in the experiment on SkMel28, 42%; in the experiment with SkMel2, 130%; in the experiment on SkMel30, 64%. Further, the “cleaved PARP positive nuclei fraction” value in the experiment on UACC62 was 9.71%; with WM115, 22%; with WM1716 it was 63%; in the experiment on WM1745 it was 95.9%; in the experiment with WM3526 it was 351%; in the experiment on WM3619, 74.8%. Moreover, in the experiment with WM451Lu, the “cleaved PARP positive nuclei fraction” value came to 70.8%.
Regarding `O=C(Nc1cc(C(F)(F)F)cc(C(F)(F)F)c1)c1cc(Cl)ccc1O` + C[C@]1(c2nc3c(C(N)=O)cccc3[nH]2)CCCN1 [Veliparib] (first compound 0.016 µM, partner dose 1.4 µM), the “cleaved PARP positive nuclei fraction” value in the experiment on MeWo was determined as 60.8%; with RPMI7951 it was 194%; in the experiment with RVH-421, 148%; in the experiment with SkMel28, 138%; in the experiment on SkMel30, 74.9%; in the experiment on UACC62 it was 192%. Further, the “cleaved PARP positive nuclei fraction” value in the experiment on WM115 worked out at 82.4%; with WM1716, 266%; with WM1745, 95.7%; in the experiment on WM3526, 51.1%; in the experiment with WM3619, 97%; in the experiment with WM451Lu, 81.9%.
`CC[C@]1(O)C[C@H]2CN(CCc3c([nH]c4ccccc34)[C@@](C(=O)OC)(c3cc4c(cc3OC)N(C=O)[C@H]3[C@@](O)(C(=O)OC)[C@H](OC(C)=O)[C@]5(CC)C=CCN6CC[C@]43[C@@H]65)C2)C1` [vincristine] + Nc1cccc2c1CN(C1CCC(=O)NC1=O)C2=O [lenalidomide] (first compound 0.0001 µM, partner dose 1 µM): the “cleaved PARP positive nuclei fraction” value amounted to 99.7% in the experiment with MeWo; 368% in the experiment with RPMI7951; 83.9% in the experiment with RVH-421; 46.3% with SkMel28; 294% in the experiment with SkMel30; 192% in the experiment on UACC62. In addition, the “cleaved PARP positive nuclei fraction” value amounted to 718% in the experiment on WM115; 107% in the experiment on WM1716; 113% in the experiment on WM1745; 114% in the experiment on WM3526; 159% in the experiment with WM3619; 138% in the experiment on WM451Lu.
In the case of `CC[C@]1(O)C[C@H]2CN(CCc3c([nH]c4ccccc34)[C@@](C(=O)OC)(c3cc4c(cc3OC)N(C=O)[C@H]3[C@@](O)(C(=O)OC)[C@H](OC(C)=O)[C@]5(CC)C=CCN6CC[C@]43[C@@H]65)C2)C1` [vincristine] + C[C@@H](Oc1cc(-c2cnn(C3CCNCC3)c2)cnc1N)c1c(Cl)ccc(F)c1Cl [Crizotinib] (first compound 0.0001 µM, partner dose 0.2 µM), the “cleaved PARP positive nuclei fraction” value in the experiment with MeWo stood at 117%; in the experiment with RPMI7951, 164%; in the experiment with RVH-421, 159%; in the experiment with SkMel28, 110%; in the experiment on SkMel2 it was 130%; with SkMel30 it was 97.3%. The “cleaved PARP positive nuclei fraction” value amounted to 72.9% with UACC62; 1020% in the experiment on WM115; 149% in the experiment with WM1716; 112% with WM1745; 241% in the experiment with WM3526; 135% in the experiment on WM3619. The “cleaved PARP positive nuclei fraction” value in the experiment on WM451Lu came to 49.8%.
For `Cc1cc(Nc2cc(N3CCN(C)CC3)nc(Sc3ccc(NC(=O)C4CC4)cc3)n2)n[nH]1` [Tozasertib] + N#CC[C@H](C1CCCC1)n1cc(-c2ncnc3[nH]ccc23)cn1 [ruxolitinib] (first compound 0.006 µM, partner dose 1 µM), the “cleaved PARP positive nuclei fraction” value came to 71.7% with MeWo; 69.5% in the experiment on RPMI7951; 98.8% in the experiment on RVH-421; 121% with SkMel28; 71.1% in the experiment with SkMel2; 65.4% in the experiment on SkMel30. Also, the “cleaved PARP positive nuclei fraction” value was determined as 75.8% in the experiment on UACC62; 185% in the experiment on WM115; 61.3% in the experiment on WM1716; 100% in the experiment with WM1745; 67.8% in the experiment on WM3526; 101% with WM3619. Moreover, the “cleaved PARP positive nuclei fraction” value with WM451Lu amounted to 195%.
Take `O=C(/C=C/c1cccnc1)NCCCCC1CCN(C(=O)c2ccccc2)CC1` + Nc1nc(F)nc2c1ncn2[C@@H]1O[C@H](CO)[C@@H](O)[C@@H]1O [fludarabine] (first compound 0.01 µM, partner dose 0.2 µM): the “cleaved PARP positive nuclei fraction” value in the experiment with MeWo worked out at 478%; with RPMI7951, 35.6%; in the experiment with RVH-421 it was 202%; in the experiment with SkMel28, 78.4%; with SkMel2, 566%; in the experiment with SkMel30, 572%. Also, the “cleaved PARP positive nuclei fraction” value came out at 74.3% in the experiment on UACC62; 250% in the experiment on WM115; 41.5% in the experiment on WM1716; 102% in the experiment on WM1745; 105% in the experiment with WM3526; 98.5% in the experiment with WM3619. For the same molecule, in the experiment on WM451Lu, the “cleaved PARP positive nuclei fraction” value came to 30.9%.
